The text below walks through data of publication PMC12207533, “Structure-guided design of a methyltransferase-like 3 (METTL3) proteolysis targeting chimera (PROTAC) incorporating an indole–nicotinamide chemotype” (RSC Medicinal Chemistry, 2025).

In the data set the test system is VCB (VHL, elongin B, elongin C). The data set can be described thus: FP displacement assay with VCB (binary and ternary KD, cooperativity). The note with it: with and without METTL3 (12 μM). In kind it is binding. The protocol: Fluorescence polarization (FP) displacement assays with METTL3/14 (ref. [36]) and VCB[38–40] were performed following previous protocols with slight adaptations. All experiments were conducted in black Greiner 96-well half-area plates using a Tecan Spark 10 M plate reader, equipped with polarization filters coupled to a monochromator setup (λex = 480 nm, λem = 530 nm). Reaction mixtures for METTL3/14 contained 300 nM recombinant enzyme, 20 nM FAM-labelled displacement tracer (STM-FL[36]), and the test compounds at varying concentrations in 25 mM Tris HCl, pH 7.5, 100 mM NaCl, and 10% DMSO. For VCB, the mixtures contained 40 nM recombinant enzyme, 10 nM FAM-labelled probe (FAM-DEALAHyp[…], Tocris Bioscience), and the tested compounds, at varying concentrations, in 50 mM Tris, pH 7.5, 200 mM NaCl, 2 mM DTT, and 10% DMSO. […] All measurements were performed at least as technical triplicates. Polarization values (mP) were determined from polarization-specific parallel and orthogonal fluorescence intensities using the Tecan in-built calculation routine. Using GraphPad Prism 8.0.1, the FP values were normalized, and KD values were calculated using a 4-parameter Hill equation: y(% probe bound) = bottom + ([ligand]slope) × (top–bottom)/([ligand]slope + KD slope).

Turning to `Cc1ncsc1-c1ccc(CNC(=O)[C@@H]2C[C@@H](O)CN2C(=O)[C@@H](NC(=O)CCc2ccc(-c3ccc(COc4cncc(C(=O)NCc5ccc6cc(CN7CCC(C)(C)CC7)[nH]c6c5)c4)cc3)cc2)C(C)(C)C)cc1` [compound 41], the “cooperativity factor α (KD binary/KD ternary)” value is 4.5.

In the case of `Cc1ncsc1-c1ccc([C@H](C)NC(=O)[C@@H]2C[C@@H](O)CN2C(=O)[C@@H](NC(=O)CCC#Cc2ccc(CNc3cc(N4CCC5(CC4)CN(c4cc(F)c(CN6CCC(C)(C)CC6)cc4F)CC(=O)N5)ncn3)cc2)C(C)(C)C)cc1` [WD6305], the “cooperativity factor α (KD binary/KD ternary)” value was found to be 23.
